Results reported in US20220153822A1.
These are yes or no findings as the source states them, for the method shown. Some entries that bind do so weakly or less than the wild type.

By UniProt entry, the sequences of proteins in these tests, tags left out.
UniProt Q8CGN5: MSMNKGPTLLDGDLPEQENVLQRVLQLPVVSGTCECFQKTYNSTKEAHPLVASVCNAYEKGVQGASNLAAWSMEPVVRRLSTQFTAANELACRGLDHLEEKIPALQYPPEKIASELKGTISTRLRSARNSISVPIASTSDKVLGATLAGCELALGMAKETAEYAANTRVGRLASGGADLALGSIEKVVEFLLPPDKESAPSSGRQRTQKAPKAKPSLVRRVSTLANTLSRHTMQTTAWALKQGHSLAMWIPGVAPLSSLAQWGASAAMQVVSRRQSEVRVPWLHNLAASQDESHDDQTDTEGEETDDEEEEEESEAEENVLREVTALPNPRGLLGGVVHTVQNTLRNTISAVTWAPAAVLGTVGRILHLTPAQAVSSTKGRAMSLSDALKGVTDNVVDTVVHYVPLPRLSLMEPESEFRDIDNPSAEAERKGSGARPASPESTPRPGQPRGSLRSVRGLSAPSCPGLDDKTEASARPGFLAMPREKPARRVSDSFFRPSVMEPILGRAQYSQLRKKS

Legend:
[1] = biological target: perilipin-1 and/or fragments thereof in and on mouse adipocytes (primary mouse adipocytes, differentiated 3T3-L1 cells) (mouse) (UniProt Q8CGN5); test: immunogold scanning electron microscopy on fixed differentiated adipocytes
[2] = biological target: perilipin-1 and/or fragments thereof in and on mouse adipocytes (primary mouse adipocytes, differentiated 3T3-L1 cells) (mouse) (UniProt Q8CGN5); test: flow cytometry on freshly isolated mouse adipocytes (FIGS. 10 and 11)
[3] = biological target: perilipin-1 and/or fragments thereof in and on mouse adipocytes (primary mouse adipocytes, differentiated 3T3-L1 cells) (mouse) (UniProt Q8CGN5); test: flow cytometry on freshly isolated mouse adipocytes, 1 ug/ml

B1: Antibody No. 11 (antibody, V domains shown)
VH: QVQLVQSGAEVKKPGASVKVSCKASGYTFTSYGISWVRQAPGQGLEWMGWISAYNGNTNYAQKLQGRVTMTTDTSTSTAYMELRSLRSDDTAVYYCASLYCSGGSCYSALDPWGQGTLVTVSS
VL: QSVLTQPPSVSGAPGQRVTISCTGSSSNIGAGYDVHWYQQLPGTAPKLLIYGNSNRPSGVPDRFSGSKSGTSASLAITGLQAEDEADYYCQSYDSSLRYVVFGGGTKVTVL
Q: For B1, which binding [1] is on record?
A: binds

B2: Antibody No. 18 (antibody, V domains shown)
VH: EVQLLESGGGLVQPGRSLRLACVASGFTFDDYGMHWVRQAPGKGLEWVAVISYDGSNKYYADSVKGRFTISRDNSKNTLYLQMNSLRAEDTAVYYCAKAYGEGGFDPWGQGTLVTVSS
VL: QSALTQPASVSGSPGQSITISCTGTSSDVGGYNYVSWYQQHPGKAPKLMIYEVSNRPSGVSNRFSGSKSGNTASLTISGLQAEDEADYYCSSYTSSSTTWVFGGGTKVTVL
Q: Which binding [2] does the source give for B2 here?
A: binds

Q: And the binding [3]?
A: binds

B3: Antibody No. 21 (antibody, V domains shown)
VH: QVQLVESGGGLVQPGRSLRLSCAASGFTFDDYAMHWVRQAPGKGLEWVSGISWNSGSIGYADSVKGRFTISRDNAKNSLYLQMNSLRAEDTALYYCAKEGEYSYGGGEFDPWGQGTLVTVSS
VL: QSALTQPASVSGSPGQSITISCTGTSSDVGGYNYVSWYQQHPGKAPKLMIYDVSNRPSGVSNRFSGSKSGNTASLTISGLQAEDEADYYCSSYTSSSTWVFGGGTKLTVL
Q: With B3 as the binder, how does the binding [2] read?
A: binds

Q: And the binding [3]?
A: binds
